Results on 13 targets are retold here after the supplement of paper PMC6411743.

By UniProt entry, the sequences of proteins in these tests, tags left out. Where a name states a change or a piece, a line headed by the entry shows the natural chain unless it says otherwise.
UniProt Q14344, whole entry: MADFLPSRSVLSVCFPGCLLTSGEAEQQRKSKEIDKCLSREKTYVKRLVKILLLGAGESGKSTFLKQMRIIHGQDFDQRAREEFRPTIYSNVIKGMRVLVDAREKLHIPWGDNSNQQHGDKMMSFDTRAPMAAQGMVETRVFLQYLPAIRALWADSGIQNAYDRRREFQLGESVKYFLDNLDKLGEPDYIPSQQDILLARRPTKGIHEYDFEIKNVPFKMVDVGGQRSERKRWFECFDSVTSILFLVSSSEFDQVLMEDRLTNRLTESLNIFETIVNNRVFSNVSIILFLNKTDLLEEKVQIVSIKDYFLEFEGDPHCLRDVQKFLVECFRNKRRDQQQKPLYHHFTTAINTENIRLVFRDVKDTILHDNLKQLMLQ
UniProt Q13616, whole entry: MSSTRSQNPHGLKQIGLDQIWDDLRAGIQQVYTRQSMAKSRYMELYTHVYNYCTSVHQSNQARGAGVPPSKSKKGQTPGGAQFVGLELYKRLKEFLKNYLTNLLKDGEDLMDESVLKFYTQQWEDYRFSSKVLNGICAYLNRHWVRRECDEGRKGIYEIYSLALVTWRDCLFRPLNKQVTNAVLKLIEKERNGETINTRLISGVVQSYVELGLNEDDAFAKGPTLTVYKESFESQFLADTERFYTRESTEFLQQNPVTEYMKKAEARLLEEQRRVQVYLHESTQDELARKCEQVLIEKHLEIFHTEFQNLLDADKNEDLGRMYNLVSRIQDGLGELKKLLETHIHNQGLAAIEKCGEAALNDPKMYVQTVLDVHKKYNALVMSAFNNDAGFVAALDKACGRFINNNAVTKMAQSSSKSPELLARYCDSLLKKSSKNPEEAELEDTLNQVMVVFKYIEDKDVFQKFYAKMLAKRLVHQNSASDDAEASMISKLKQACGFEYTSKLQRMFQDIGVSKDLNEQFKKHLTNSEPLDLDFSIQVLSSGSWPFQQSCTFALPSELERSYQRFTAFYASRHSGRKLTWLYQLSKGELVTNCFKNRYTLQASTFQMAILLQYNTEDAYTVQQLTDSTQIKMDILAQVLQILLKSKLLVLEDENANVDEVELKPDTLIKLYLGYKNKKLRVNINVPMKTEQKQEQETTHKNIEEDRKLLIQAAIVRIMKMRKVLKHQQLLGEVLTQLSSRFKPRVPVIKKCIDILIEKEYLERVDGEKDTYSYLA
UniProt Q14814: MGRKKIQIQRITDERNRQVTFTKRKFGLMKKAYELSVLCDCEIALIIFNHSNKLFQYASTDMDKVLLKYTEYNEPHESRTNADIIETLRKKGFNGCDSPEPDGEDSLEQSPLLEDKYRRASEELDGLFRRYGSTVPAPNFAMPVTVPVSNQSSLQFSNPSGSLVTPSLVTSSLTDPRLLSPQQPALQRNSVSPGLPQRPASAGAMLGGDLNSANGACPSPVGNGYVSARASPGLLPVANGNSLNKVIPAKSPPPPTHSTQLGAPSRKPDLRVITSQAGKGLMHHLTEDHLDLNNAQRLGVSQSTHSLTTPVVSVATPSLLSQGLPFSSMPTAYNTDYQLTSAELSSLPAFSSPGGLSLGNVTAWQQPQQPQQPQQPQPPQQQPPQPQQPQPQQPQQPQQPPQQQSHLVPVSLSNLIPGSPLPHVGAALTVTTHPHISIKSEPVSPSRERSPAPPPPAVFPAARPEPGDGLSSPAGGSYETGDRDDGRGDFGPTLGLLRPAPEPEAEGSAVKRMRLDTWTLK
UniProt Q13907: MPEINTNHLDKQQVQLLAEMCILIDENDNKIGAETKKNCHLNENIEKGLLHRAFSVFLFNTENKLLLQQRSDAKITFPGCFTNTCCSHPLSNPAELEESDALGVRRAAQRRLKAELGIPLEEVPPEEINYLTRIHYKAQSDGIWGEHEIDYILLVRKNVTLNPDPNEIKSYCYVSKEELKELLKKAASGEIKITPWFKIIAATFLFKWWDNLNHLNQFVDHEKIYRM
UniProt Q13404: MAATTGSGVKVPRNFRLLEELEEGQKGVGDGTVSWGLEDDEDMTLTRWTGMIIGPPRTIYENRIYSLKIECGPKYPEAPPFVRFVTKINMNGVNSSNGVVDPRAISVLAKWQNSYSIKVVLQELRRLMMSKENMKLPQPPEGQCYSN
UniProt Q14980: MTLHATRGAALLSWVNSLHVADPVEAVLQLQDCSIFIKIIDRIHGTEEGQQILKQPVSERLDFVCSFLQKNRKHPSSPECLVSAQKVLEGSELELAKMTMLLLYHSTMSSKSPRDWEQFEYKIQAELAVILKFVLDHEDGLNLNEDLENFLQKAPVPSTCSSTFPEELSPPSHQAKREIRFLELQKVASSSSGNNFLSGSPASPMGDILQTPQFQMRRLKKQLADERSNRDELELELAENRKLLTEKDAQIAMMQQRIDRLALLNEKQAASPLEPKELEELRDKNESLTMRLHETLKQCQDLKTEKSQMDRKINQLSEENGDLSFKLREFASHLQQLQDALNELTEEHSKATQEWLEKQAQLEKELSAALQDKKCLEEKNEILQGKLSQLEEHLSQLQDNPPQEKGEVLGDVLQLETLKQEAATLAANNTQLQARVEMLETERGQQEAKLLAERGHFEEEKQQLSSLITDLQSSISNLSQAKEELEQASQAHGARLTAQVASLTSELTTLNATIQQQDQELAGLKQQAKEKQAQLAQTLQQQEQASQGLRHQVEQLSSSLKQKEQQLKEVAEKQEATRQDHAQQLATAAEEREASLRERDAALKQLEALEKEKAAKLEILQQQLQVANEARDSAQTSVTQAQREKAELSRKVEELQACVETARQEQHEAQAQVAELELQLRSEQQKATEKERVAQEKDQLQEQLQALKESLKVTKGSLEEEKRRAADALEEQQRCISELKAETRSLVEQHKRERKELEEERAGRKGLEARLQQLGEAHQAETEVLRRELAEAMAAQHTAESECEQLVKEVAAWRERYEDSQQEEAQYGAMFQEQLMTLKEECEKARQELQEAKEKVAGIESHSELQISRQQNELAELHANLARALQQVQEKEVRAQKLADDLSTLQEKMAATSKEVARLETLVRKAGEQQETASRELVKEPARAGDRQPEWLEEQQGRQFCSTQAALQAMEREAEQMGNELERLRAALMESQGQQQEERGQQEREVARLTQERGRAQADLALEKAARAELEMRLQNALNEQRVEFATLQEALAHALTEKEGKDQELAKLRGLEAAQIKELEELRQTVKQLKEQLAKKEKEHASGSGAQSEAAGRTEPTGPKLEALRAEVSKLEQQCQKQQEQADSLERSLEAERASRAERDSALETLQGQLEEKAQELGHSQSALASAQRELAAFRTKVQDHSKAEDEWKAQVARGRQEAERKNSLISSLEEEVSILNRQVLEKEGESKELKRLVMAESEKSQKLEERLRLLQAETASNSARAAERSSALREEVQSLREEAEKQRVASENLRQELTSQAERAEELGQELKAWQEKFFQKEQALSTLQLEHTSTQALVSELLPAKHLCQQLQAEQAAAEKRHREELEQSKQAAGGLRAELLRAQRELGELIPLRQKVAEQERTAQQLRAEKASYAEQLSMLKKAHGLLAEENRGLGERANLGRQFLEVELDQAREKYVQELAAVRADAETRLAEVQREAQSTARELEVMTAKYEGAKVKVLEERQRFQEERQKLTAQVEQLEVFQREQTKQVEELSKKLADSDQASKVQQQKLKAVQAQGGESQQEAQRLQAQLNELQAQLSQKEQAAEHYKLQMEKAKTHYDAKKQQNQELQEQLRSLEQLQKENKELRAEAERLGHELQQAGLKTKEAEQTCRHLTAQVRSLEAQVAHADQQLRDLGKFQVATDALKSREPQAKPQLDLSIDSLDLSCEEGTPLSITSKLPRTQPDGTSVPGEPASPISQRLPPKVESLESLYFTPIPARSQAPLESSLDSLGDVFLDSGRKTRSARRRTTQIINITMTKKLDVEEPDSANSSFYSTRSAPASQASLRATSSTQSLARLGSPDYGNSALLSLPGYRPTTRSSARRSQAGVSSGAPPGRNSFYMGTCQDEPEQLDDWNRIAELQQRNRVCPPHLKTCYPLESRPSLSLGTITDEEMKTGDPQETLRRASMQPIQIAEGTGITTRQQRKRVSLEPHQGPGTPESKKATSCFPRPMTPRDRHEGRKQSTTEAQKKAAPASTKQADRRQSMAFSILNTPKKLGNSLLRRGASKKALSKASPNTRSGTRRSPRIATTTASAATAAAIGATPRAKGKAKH
UniProt Q14320: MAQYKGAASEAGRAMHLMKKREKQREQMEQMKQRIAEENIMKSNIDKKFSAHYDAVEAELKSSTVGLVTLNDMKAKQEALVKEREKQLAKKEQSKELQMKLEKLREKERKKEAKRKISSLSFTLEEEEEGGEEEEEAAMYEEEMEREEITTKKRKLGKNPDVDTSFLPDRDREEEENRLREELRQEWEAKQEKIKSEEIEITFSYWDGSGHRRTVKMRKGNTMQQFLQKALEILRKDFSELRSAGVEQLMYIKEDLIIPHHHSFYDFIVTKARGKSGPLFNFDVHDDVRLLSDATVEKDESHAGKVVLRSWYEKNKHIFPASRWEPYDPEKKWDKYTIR
UniProt Q13356: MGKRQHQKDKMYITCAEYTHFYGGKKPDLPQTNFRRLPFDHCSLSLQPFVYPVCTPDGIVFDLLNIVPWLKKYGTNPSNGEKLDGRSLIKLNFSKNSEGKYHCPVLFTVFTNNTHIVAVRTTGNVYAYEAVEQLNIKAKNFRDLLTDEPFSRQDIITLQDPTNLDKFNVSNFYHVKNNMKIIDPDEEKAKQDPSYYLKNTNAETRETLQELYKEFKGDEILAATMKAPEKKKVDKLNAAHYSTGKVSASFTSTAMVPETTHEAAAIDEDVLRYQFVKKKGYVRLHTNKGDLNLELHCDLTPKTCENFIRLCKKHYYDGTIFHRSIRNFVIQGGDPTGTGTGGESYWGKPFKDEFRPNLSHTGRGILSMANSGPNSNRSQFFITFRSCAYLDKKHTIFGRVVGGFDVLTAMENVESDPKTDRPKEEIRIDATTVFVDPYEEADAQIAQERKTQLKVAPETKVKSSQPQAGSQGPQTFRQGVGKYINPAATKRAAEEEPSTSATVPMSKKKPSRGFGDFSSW

± gives the standard deviation of the averaged measurements. Only a part is listed here, and it is no random draw.

Compound in this assay: Nc1ncnc2c1ncn2[C@@H]1O[C@H](COP(=O)(O)OP(=O)(O)NP(=O)(O)O)[C@@H](O)[C@H]1O [adenylyl imidodiphosphate]
In words: NP40-soluble protein abundance relative to vehicle (solubility fold change) (ratio); higher = more soluble protein in presence of AMP-PNP. The method in brief:
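Eight concentrations, 0.1 to 10 mM, were tested on Jurkat crude lysate for 10 min at room temperature and then 3 min at 37 °C, in three independent experiments. The lysate was solubilised with 0.8% NP40 and benzonase, ultracentrifuged, and the supernatant TMT-labelled for LC-MS/MS. Each value is the fold change against the detergent-processed vehicle in its own replicate, from vsn-normalised intensities.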

GNA13 (UniProt Q14344): the NP40-soluble protein abundance (concentration: 1mM) stood at 0.956 ± 0.03; the NP40-soluble protein abundance (concentration: 2mM) is 0.875 ± 0.13; the NP40-soluble protein abundance (concentration: 4mM) came out at 0.938 ± 0.023; the NP40-soluble protein abundance (concentration: 6mM) is 0.908 ± 0.018; the NP40-soluble protein abundance (concentration: 8mM) was found to be 0.9221 ± 0.0076; the NP40-soluble protein abundance (concentration: 10mM) came to 0.8788 ± 0.0061.

For the target CUL1 (UniProt Q13616), the NP40-soluble protein abundance was found to be 0.994 ± 0.021 (concentration: 1mM); 0.952 ± 0.061 (concentration: 2mM); 0.962 ± 0.026 (concentration: 4mM); 0.955 ± 0.034 (concentration: 6mM); 0.96 ± 0.042 (concentration: 8mM); 0.941 ± 0.046 (concentration: 10mM).

Regarding UniProt Q14814 and related entries, the NP40-soluble protein abundance by setting is: (concentration: 1mM) 0.98 ± 0.03; (concentration: 2mM) 1.04 ± 0.073; (concentration: 4mM) 0.982 ± 0.062; (concentration: 6mM) 0.959 ± 0.015; (concentration: 8mM) 0.946 ± 0.021; (concentration: 10mM) 0.945 ± 0.048.

On to GNL2 (UniProt Q13823), for which the NP40-soluble protein abundance reads like this: (concentration: 1mM) 1 ± 0.025; (concentration: 2mM) 1.05 ± 0.037; (concentration: 4mM) 1.04 ± 0.015; (concentration: 6mM) 1.05 ± 0.025; (concentration: 8mM) 1.04 ± 0.036; (concentration: 10mM) 1.04 ± 0.034.

Take UniProt Q15018: the NP40-soluble protein abundance reads like this: (concentration: 1mM) 1 ± 0.041; (concentration: 2mM) 1.03 ± 0.026; (concentration: 4mM) 0.977 ± 0.018; (concentration: 6mM) 0.958 ± 0.032; (concentration: 8mM) 0.9313 ± 0.0068; (concentration: 10mM) 0.949 ± 0.047.

Consider IDI1 (UniProt Q13907), for which the NP40-soluble protein abundance by setting is: (concentration: 1mM) 0.997 ± 0.026; (concentration: 2mM) 0.981 ± 0.039; (concentration: 4mM) 0.954 ± 0.04; (concentration: 6mM) 1.01 ± 0.088; (concentration: 8mM) 1 ± 0.051; (concentration: 10mM) 0.98 ± 0.071.

For the target UniProt Q13501 and related entries, the NP40-soluble protein abundance by setting is: (concentration: 1mM) 1.04 ± 0.047; (concentration: 2mM) 1.05 ± 0.037; (concentration: 4mM) 1.01 ± 0.042; (concentration: 6mM) 1.02 ± 0.045; (concentration: 8mM) 0.966 ± 0.048; (concentration: 10mM) 1.04 ± 0.055.

Turning to UBE2V1 (UniProt Q13404), the NP40-soluble protein abundance is, setting by setting: (concentration: 1mM) 0.951 ± 0.073; (concentration: 2mM) 0.958 ± 0.07; (concentration: 4mM) 1.01 ± 0.089; (concentration: 6mM) 1.14 ± 0.21; (concentration: 8mM) 1.17 ± 0.14; (concentration: 10mM) 1.18 ± 0.15.

Regarding UniProt Q14980 and related entries, the NP40-soluble protein abundance (concentration: 1mM) turned out to be 1.04 ± 0.022; the NP40-soluble protein abundance (concentration: 2mM) came out at 1.06 ± 0.09; the NP40-soluble protein abundance (concentration: 4mM) worked out at 0.961 ± 0.04; the NP40-soluble protein abundance (concentration: 6mM) was 0.918 ± 0.016; the NP40-soluble protein abundance (concentration: 8mM) worked out at 0.875 ± 0.039; the NP40-soluble protein abundance (concentration: 10mM) is 0.906 ± 0.056.

On to MRPL49 (UniProt Q13405), for which the NP40-soluble protein abundance reads like this: (concentration: 1mM) 1.01 ± 0.12; (concentration: 2mM) 0.996 ± 0.05; (concentration: 4mM) 0.98 ± 0.093; (concentration: 6mM) 0.941 ± 0.1; (concentration: 8mM) 0.963 ± 0.09; (concentration: 10mM) 0.963 ± 0.13.

In the case of FAM50A (UniProt Q14320), the NP40-soluble protein abundance (concentration: 1mM) stood at 1 ± 0.028; the NP40-soluble protein abundance (concentration: 2mM) turned out to be 1.01 ± 0.061; the NP40-soluble protein abundance (concentration: 4mM) was 0.982 ± 0.032; the NP40-soluble protein abundance (concentration: 6mM) amounted to 1.03 ± 0.06; the NP40-soluble protein abundance (concentration: 8mM) came to 0.983 ± 0.034; the NP40-soluble protein abundance (concentration: 10mM) stood at 0.998 ± 0.093.

In the case of PPIL2 (UniProt Q13356), the NP40-soluble protein abundance runs as follows: (concentration: 1mM) 1.03 ± 0.017; (concentration: 2mM) 1.02 ± 0.029; (concentration: 4mM) 1.04 ± 0.012; (concentration: 6mM) 1.03 ± 0.026; (concentration: 8mM) 1.02 ± 0.036; (concentration: 10mM) 1.03 ± 0.039.

As for KIF14 (UniProt Q15058), the NP40-soluble protein abundance reads like this: (concentration: 1mM) 1.02 ± 0.017; (concentration: 2mM) 1 ± 0.034; (concentration: 4mM) 1.02 ± 0.06; (concentration: 6mM) 0.956 ± 0.027; (concentration: 8mM) 0.94 ± 0.01; (concentration: 10mM) 0.975 ± 0.017.
